Data published in paper PMC4510711.
No constants are given. Whether binding was seen depends on the method and setting. Binding seen in cells or lysates may run through a third protein. Here binding means that the protein was enriched with, or labelled near, the bait; the list need not be complete. Where a sequence is shown, tags or fusion partners need not be part of it.

By UniProt entry, the sequences of proteins in these tests, tags left out.
UniProt Q9NZN8: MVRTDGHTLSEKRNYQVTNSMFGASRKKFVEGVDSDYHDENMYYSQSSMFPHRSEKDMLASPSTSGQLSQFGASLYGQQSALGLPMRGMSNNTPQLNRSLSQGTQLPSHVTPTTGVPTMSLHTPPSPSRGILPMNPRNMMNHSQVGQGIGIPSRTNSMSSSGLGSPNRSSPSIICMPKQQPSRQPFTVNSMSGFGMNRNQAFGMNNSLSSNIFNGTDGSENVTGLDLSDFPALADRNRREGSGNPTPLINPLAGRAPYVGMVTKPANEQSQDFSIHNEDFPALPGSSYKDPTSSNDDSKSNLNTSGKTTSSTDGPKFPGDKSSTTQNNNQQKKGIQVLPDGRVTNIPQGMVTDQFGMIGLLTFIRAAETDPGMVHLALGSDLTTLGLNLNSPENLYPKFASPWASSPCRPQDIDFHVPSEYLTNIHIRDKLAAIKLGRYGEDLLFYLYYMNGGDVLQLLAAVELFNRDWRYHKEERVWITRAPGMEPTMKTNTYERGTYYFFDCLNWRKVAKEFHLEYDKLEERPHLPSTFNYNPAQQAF
UniProt O75175: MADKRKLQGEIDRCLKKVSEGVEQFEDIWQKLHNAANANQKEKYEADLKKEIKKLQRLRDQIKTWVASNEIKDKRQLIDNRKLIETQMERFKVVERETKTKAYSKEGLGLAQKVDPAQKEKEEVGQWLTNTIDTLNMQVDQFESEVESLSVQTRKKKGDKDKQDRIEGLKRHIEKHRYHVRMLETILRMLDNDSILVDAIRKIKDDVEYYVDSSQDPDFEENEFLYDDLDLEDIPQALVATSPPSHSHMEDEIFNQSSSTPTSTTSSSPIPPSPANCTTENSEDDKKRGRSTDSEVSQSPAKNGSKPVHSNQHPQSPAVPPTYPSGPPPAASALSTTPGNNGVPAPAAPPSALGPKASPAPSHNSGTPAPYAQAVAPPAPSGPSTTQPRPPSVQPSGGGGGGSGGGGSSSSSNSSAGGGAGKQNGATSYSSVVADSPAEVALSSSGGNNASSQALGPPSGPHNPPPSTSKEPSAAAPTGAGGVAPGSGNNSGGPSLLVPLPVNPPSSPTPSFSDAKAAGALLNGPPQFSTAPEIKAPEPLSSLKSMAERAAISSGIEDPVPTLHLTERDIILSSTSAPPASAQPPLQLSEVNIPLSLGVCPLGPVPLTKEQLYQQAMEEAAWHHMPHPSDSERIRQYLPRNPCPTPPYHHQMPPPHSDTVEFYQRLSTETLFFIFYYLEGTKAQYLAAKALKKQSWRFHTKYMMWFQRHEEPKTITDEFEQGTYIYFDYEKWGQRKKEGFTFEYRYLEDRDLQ
UniProt Q9UFF9: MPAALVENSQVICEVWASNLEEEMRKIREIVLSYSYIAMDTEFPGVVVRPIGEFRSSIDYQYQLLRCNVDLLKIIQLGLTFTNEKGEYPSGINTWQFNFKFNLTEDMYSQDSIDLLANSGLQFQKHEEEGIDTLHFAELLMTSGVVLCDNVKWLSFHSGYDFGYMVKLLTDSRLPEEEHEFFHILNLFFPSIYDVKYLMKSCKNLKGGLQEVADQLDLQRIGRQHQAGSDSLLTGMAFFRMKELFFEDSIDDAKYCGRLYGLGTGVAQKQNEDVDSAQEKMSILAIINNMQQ
UniProt Q9UIV1: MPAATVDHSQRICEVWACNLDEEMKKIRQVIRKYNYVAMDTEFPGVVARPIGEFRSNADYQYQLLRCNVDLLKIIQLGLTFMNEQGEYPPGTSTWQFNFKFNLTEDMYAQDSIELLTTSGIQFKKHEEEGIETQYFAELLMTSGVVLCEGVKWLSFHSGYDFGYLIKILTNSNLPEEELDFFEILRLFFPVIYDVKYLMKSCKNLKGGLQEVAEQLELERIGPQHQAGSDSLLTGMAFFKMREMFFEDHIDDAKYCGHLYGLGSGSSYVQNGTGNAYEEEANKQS
UniProt A5YKK6: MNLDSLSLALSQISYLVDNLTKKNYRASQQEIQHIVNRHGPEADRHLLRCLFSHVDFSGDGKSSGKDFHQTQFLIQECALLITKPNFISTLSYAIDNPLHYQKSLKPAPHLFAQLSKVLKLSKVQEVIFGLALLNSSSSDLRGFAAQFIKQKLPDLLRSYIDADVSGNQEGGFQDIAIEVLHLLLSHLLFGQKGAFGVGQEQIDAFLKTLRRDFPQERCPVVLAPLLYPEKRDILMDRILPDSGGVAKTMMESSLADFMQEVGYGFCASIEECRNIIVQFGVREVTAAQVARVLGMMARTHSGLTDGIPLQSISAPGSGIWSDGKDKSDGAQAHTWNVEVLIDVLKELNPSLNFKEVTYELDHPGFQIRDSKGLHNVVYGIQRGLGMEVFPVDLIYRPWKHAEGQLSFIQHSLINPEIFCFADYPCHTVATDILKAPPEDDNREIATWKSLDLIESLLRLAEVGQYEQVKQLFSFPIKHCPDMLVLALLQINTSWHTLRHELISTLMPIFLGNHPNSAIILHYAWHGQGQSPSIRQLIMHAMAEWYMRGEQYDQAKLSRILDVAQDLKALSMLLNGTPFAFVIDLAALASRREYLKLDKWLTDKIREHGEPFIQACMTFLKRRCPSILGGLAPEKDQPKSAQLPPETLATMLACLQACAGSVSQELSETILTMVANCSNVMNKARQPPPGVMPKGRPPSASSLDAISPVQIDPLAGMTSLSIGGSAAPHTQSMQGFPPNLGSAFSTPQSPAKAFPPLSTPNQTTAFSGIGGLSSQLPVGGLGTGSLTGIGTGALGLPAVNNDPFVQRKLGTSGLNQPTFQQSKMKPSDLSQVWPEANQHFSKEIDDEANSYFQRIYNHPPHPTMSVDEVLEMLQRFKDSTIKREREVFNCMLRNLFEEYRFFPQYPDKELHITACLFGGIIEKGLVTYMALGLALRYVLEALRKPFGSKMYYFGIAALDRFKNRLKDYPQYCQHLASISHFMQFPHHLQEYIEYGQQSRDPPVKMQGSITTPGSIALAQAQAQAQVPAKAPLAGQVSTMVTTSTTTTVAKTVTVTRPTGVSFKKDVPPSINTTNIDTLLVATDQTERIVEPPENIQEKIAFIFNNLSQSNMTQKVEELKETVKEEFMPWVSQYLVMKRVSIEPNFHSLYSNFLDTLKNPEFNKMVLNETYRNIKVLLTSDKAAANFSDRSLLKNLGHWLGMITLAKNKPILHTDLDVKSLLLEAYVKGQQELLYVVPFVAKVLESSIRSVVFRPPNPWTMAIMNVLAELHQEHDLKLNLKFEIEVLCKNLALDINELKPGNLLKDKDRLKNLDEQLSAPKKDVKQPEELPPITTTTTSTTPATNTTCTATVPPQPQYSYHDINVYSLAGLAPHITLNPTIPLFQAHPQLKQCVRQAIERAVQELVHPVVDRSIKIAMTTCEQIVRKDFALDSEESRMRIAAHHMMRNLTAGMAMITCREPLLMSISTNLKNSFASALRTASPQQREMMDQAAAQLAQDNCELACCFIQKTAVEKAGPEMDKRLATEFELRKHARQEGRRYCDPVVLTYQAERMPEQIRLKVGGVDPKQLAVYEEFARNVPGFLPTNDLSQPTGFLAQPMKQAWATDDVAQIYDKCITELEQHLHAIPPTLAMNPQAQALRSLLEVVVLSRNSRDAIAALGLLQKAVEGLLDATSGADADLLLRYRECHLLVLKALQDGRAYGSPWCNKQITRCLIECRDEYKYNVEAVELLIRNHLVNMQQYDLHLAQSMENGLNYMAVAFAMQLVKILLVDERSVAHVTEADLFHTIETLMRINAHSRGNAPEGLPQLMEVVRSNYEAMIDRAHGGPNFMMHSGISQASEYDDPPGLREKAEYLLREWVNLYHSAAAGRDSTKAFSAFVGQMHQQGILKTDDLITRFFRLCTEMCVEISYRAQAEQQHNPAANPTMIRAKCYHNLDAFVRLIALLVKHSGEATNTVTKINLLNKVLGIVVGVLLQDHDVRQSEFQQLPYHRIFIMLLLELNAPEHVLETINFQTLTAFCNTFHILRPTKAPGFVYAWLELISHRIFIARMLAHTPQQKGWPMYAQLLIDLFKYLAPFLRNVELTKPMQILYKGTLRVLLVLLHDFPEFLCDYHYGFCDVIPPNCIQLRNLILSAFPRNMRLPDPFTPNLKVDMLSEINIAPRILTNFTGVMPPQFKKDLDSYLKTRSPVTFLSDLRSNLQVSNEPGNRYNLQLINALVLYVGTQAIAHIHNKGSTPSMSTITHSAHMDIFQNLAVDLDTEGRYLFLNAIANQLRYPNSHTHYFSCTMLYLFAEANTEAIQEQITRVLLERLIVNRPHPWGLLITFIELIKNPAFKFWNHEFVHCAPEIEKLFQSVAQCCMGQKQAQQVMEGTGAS

Target: T1, FLAG/HA-tagged RC3H1 (human) (UniProt Q5TC82)
T1 sequence: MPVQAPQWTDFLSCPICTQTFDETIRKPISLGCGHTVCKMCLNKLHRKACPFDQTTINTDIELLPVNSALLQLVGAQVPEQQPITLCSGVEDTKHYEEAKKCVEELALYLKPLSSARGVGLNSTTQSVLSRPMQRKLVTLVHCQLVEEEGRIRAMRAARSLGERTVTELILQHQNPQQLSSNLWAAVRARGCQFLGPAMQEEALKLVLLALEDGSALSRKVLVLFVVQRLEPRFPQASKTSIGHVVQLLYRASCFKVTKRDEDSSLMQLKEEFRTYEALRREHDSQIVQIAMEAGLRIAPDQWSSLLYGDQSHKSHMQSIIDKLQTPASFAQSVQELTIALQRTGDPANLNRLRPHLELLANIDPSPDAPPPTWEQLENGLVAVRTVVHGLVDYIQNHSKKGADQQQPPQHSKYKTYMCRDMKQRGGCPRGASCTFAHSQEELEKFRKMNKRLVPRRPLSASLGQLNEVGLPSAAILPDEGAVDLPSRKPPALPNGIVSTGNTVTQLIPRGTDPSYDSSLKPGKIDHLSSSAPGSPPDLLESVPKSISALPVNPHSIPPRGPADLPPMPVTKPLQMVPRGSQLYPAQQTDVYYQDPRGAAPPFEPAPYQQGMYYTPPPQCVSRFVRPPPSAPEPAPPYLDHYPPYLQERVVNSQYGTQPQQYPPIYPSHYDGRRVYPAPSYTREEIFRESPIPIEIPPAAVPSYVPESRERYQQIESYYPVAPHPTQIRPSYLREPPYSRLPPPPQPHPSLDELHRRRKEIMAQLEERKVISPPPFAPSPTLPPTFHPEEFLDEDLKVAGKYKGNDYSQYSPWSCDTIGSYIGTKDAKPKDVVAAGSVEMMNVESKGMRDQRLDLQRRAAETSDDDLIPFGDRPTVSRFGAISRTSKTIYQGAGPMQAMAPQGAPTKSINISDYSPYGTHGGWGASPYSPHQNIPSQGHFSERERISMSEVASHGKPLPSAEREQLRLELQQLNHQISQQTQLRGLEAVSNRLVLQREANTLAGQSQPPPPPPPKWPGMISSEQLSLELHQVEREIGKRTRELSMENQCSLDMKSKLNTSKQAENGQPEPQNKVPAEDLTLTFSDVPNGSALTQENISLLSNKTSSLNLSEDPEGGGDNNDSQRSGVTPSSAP
Test: affinity purification with mass spectrometry; SILAC label-swap (forward and reverse); FLAG/HA-RC3H1 purified from NP40 lysis buffer extracts on FLAG magnetic beads, then on HA beads; extracts treated with RNase T1, beads with RNase T1 and RNase I to disrupt RNA-mediated interactions; on-column tryptic digestion, LC-MS/MS

binding	Substance
binds	CNOT2 (from UniProt Q9NZN8 1-540)
binds	CNOT3 (from UniProt O75175 1-753)
binds	CNOT8 (from UniProt Q9UFF9 1-292)
binds	CNOT7 (from UniProt Q9UIV1 1-285)
binds	CNOT1 (from UniProt A5YKK6 1-2376)
